# Test results published in the supplement of paper PMC10689618.
# The other results are listed elsewhere or left out. Many values rest on one well or one pass, so single values are uncertain.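 Labelled rat cortical synaptosomes were engulfed by primary human fetal astrocytes. Engulfment equaled a red/green ratio, corrected for calcein live-cell signal and normalized to the plate median. Compounds were toxic when calcein dropped over 30%, and reduced phagocytosis when below 70% of the median above 5 µM.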
# Legend:
# Human fetal astrocytes [1] = test: loss of total cells relative to no-compound high-control median (toxicity); higher = more toxic (fewer cells); conditions: 24 h
# Human fetal astrocytes [2] = test: synaptosome phagocytosis (pHrodo/calcein intensity ratio) relative to plate median of data wells; higher = more phagocytosis; conditions: 24 h
Compound,loss of total cells (Human fetal astrocytes [1]; 1.39 µM) [%],loss of total cells (Human fetal astrocytes [1]; 2.78 µM) [%],loss of total cells (Human fetal astrocytes [1]; 5.56 µM) [%],loss of total cells (Human fetal astrocytes [1]; 11.11 µM) [%],loss of total cells (Human fetal astrocytes [1]; 22.22 µM) [%],synaptosome phagocytosis (Human fetal astrocytes [2]; 1.39 µM) [%],synaptosome phagocytosis (Human fetal astrocytes [2]; 2.78 µM) [%],synaptosome phagocytosis (Human fetal astrocytes [2]; 5.56 µM) [%],synaptosome phagocytosis (Human fetal astrocytes [2]; 11.11 µM) [%],synaptosome phagocytosis (Human fetal astrocytes [2]; 22.22 µM) [%]
CC(C)C[C@H](N)C(=O)N[C@@H](C)C(=O)O,9,15.5,10.9,-1.3,16.7,99.1,159,128,117,129
COc1ccc(-c2cc(=O)c3c(OC)cc(OC)cc3o2)cc1,-26.2,-6.1,7.3,4.1,5.2,77.7,88.4,80,93.1,87.2
Clc1ccccc1C(c1ccccc1)(c1ccccc1)n1ccnc1 [Clotrimazole],3.3,-7.1,0.7,-2.6,12.5,118,82.7,102,70.1,70
COC(=O)C[C@H]1C(C)(C)C(=O)[C@@H]2CC3=C(CC[C@]4(C)C3=CC(=O)O[C@H]4c3ccoc3)[C@@]1(C)C2=O,-4,-1.3,36.6,-3.2,5.6,120,86.5,120,108,123
CC(C)=CCc1c(O)cc2oc(C)cc(=O)c2c1O,-10.5,0,-1.5,40,10.7,100,71.7,117,154,87.1
CCCCOc1cc(C(=O)NCCN(CC)CC)c2ccccc2n1,11.6,-26.8,-4.2,21,12.5,79.1,101,102,87.2,70.5
COc1cc(O)c2c(=O)cc(C)oc2c1CC=C(C)C,16.3,10,-9.2,45.8,-9.3,157,79.3,86.2,112,91.2
CN(C)CCCO[C@@H]1[C@H]2OC(C)(C)O[C@H]2O[C@@H]1[C@H](O)CO,-27.4,-21.4,-11.2,12.1,-8.4,121,92.2,124,113,100
CC(=O)[C@H]1CC[C@H]2[C@@H]3CC=C4C[C@@H](O)CC[C@]4(C)[C@H]3CC[C@]12C,15.5,6.9,8,5.4,21.2,136,111,106,118,79.2
O=c1cc(-c2ccc(O)cc2)oc2cc(O[C@@H]3O[C@H](CO)[C@@H](O)[C@H](O)[C@H]3O[C@@H]3OC[C@](O)(CO)[C@H]3O)cc(O)c12,-9.1,4,29.8,9,-11.5,129,116,154,104,128
CC(=O)CC(=O)CCC(=O)O,10.5,12.6,2.9,-14.6,15.9,122,138,108,136,113
NC(=O)NC(=O)Cc1ccccc1,11.6,-17.4,8.7,-11.7,30,107,110,102,87,132
CN[C@H](CC(C)C)C(=O)N[C@H]1C(=O)N[C@@H](CC(N)=O)C(=O)N[C@H]2C(=O)N[C@H]3C(=O)N[C@H](C(=O)N[C@H](C(=O)O)c4cc(O)cc(O)c4-c4cc3ccc4O)[C@H](O)c3ccc(c(Cl)c3)Oc3cc2cc(c3O[C@@H]2O[C@H](CO)[C@@H](O)[C@H](O)[C@H]2O[C@H]2C[C@](C)(N)[C@H](O)[C@H](C)O2)Oc2ccc(cc2Cl)[C@H]1O,5.6,-0.3,0,4.9,35,79.4,86.1,102,121,109
OCC(S)CS (stereo not given),31.5,7.3,-18.3,49.7,12.2,132,95,94.3,252,217
CC(C)c1ccc2c(c1)CC[C@H]1[C@](C)(CN)CCC[C@]21C,-10.7,-4,-1.5,12.2,83.7,99.7,106,91.8,75.1,0
COc1c(N2CCNC(C)C2)c(F)cc2c(=O)c(C(=O)O)cn(C3CC3)c12 (stereo not given),13.7,-38.1,5,-5.6,-0.9,114,91.7,95.2,106,104
COC(=O)C(N)CS (stereo not given),16.2,1.1,23.9,7.9,27.3,121,87.9,90.3,99.6,116
CC1(C)C(=O)C=CC2(C)C1C=CC1(C)C2CCC2(C)C(c3ccoc3)OC(=O)C3OC312 (stereo not given),-18.5,-4,15.3,7.7,12.2,95.9,104,79.2,60.2,63.1
CC1CCC2(OC1)OC1CC3C4CCC5C[C@@H](O)CCC5(C)C4=CCC3(C)C1[C@@H]2C (stereo partly drawn) [3beta-HYDROXYISOALLOSPIROST-9(11)-ENE],-21.4,-4.7,39.7,11,-26.3,90.2,83.9,162,104,69.1
Cc1cc(OC(=O)c2c(C)cc(O)cc2O)cc(O)c1C(=O)O,-26.4,-0.7,33.6,4.5,-17.4,98.8,120,131,117,125

# As a short view, part of the list above:
Compound,loss of total cells (Human fetal astrocytes [1]; 1.39 µM) [%],loss of total cells (Human fetal astrocytes [1]; 2.78 µM) [%],loss of total cells (Human fetal astrocytes [1]; 5.56 µM) [%],loss of total cells (Human fetal astrocytes [1]; 11.11 µM) [%],loss of total cells (Human fetal astrocytes [1]; 22.22 µM) [%],synaptosome phagocytosis (Human fetal astrocytes [2]; 1.39 µM) [%],synaptosome phagocytosis (Human fetal astrocytes [2]; 2.78 µM) [%],synaptosome phagocytosis (Human fetal astrocytes [2]; 5.56 µM) [%],synaptosome phagocytosis (Human fetal astrocytes [2]; 11.11 µM) [%],synaptosome phagocytosis (Human fetal astrocytes [2]; 22.22 µM) [%]
COc1cc(O)c2c(=O)cc(C)oc2c1CC=C(C)C,16.3,10,-9.2,45.8,-9.3,157,79.3,86.2,112,91.2
CN(C)CCCO[C@@H]1[C@H]2OC(C)(C)O[C@H]2O[C@@H]1[C@H](O)CO,-27.4,-21.4,-11.2,12.1,-8.4,121,92.2,124,113,100
CC(=O)[C@H]1CC[C@H]2[C@@H]3CC=C4C[C@@H](O)CC[C@]4(C)[C@H]3CC[C@]12C,15.5,6.9,8,5.4,21.2,136,111,106,118,79.2
O=c1cc(-c2ccc(O)cc2)oc2cc(O[C@@H]3O[C@H](CO)[C@@H](O)[C@H](O)[C@H]3O[C@@H]3OC[C@](O)(CO)[C@H]3O)cc(O)c12,-9.1,4,29.8,9,-11.5,129,116,154,104,128
CC(=O)CC(=O)CCC(=O)O,10.5,12.6,2.9,-14.6,15.9,122,138,108,136,113
NC(=O)NC(=O)Cc1ccccc1,11.6,-17.4,8.7,-11.7,30,107,110,102,87,132
CN[C@H](CC(C)C)C(=O)N[C@H]1C(=O)N[C@@H](CC(N)=O)C(=O)N[C@H]2C(=O)N[C@H]3C(=O)N[C@H](C(=O)N[C@H](C(=O)O)c4cc(O)cc(O)c4-c4cc3ccc4O)[C@H](O)c3ccc(c(Cl)c3)Oc3cc2cc(c3O[C@@H]2O[C@H](CO)[C@@H](O)[C@H](O)[C@H]2O[C@H]2C[C@](C)(N)[C@H](O)[C@H](C)O2)Oc2ccc(cc2Cl)[C@H]1O,5.6,-0.3,0,4.9,35,79.4,86.1,102,121,109
OCC(S)CS (stereo not given),31.5,7.3,-18.3,49.7,12.2,132,95,94.3,252,217
CC(C)c1ccc2c(c1)CC[C@H]1[C@](C)(CN)CCC[C@]21C,-10.7,-4,-1.5,12.2,83.7,99.7,106,91.8,75.1,0
COc1c(N2CCNC(C)C2)c(F)cc2c(=O)c(C(=O)O)cn(C3CC3)c12 (stereo not given),13.7,-38.1,5,-5.6,-0.9,114,91.7,95.2,106,104

# The results go on:

Compound,loss of total cells (Human fetal astrocytes [1]; 1.39 µM) [%],loss of total cells (Human fetal astrocytes [1]; 2.78 µM) [%],loss of total cells (Human fetal astrocytes [1]; 5.56 µM) [%],loss of total cells (Human fetal astrocytes [1]; 11.11 µM) [%],loss of total cells (Human fetal astrocytes [1]; 22.22 µM) [%],synaptosome phagocytosis (Human fetal astrocytes [2]; 1.39 µM) [%],synaptosome phagocytosis (Human fetal astrocytes [2]; 2.78 µM) [%],synaptosome phagocytosis (Human fetal astrocytes [2]; 5.56 µM) [%],synaptosome phagocytosis (Human fetal astrocytes [2]; 11.11 µM) [%],synaptosome phagocytosis (Human fetal astrocytes [2]; 22.22 µM) [%]
NCCNCCNCCN,-29.8,-27.8,0,39,1.6,120,89.9,88.2,137,101
C[C@@H]1NC(=O)[C@@H](N)CNC(=O)[C@H](C2CCNC(=N)N2)NC(=O)/C(=C/NC(N)=O)NC(=O)[C@H](CNC(=O)CC(N)CCCN)NC1=O.N=C1NCC[C@H]([C@@H]2NC(=O)/C(=C/NC(N)=O)NC(=O)[C@H](CNC(=O)C[C@@H](N)CCCN)NC(=O)[C@H](CO)NC(=O)[C@@H](N)CNC2=O)N1,-2.5,21.6,-2.7,-17.2,-22.7,101,118,116,155,118
O=C(O)/C=C(/CC(=O)O)C(=O)O,-20.5,-11.2,-1.5,14.2,18.5,104,98.6,89.3,117,113
CCN[C@@H]1C[C@H](N)[C@@H](O[C@H]2OC(CN)=CC[C@H]2N)[C@H](O)[C@H]1O[C@H]1OC[C@](C)(O)[C@H](NC)[C@H]1O,-18.5,-19,5,8.9,12.1,102,132,148,103,106
COc1cc(C)c(C(=O)Oc2cc(C)c(C(=O)O)c(O)c2C)c(O)c1C=O,-10.7,-0.4,15.4,10.8,15.6,94.2,100,98.2,113,164
Cc1cccc(C)c1NC(=O)C1CCCCN1C (stereo not given),-14.1,-13.1,1.5,-11.7,-6.8,98.7,92.7,118,128,114
CC1(C)CC[C@]2(C(=O)O)CC[C@]3(C)C(=CC[C@@H]4[C@@]5(C)CC[C@H](O)[C@@](C)(CO)[C@@H]5CC[C@]43C)[C@@H]2C1,-26.2,-4.7,-5.1,2.7,-2.2,101,123,133,109,94.7
CC=CC(=O)N(CC)c1ccccc1C,-21.6,16.2,-5.1,-7.8,-1.7,93.2,110,90.3,96,88.8
CC(=O)O[C@@H]1C[C@H]2C(C)(C)C(=O)C=C[C@]2(C)[C@H]2CC[C@@]3(C)[C@H](c4ccoc4)OC(=O)[C@H]4O[C@]43[C@@]21C,26.4,14.8,12.3,7.1,2.3,87.1,144,92.4,68.4,84
CN[C@@H]1[C@H](O[C@H]2[C@H](O[C@H]3[C@H](O)[C@@H](O)[C@H](N=C(N)N)[C@@H](O)[C@@H]3N=C(N)N)O[C@@H](C)[C@]2(O)C=O)O[C@@H](CO)[C@H](O)[C@H]1O,3.9,-6.4,-8.4,2,-7,95.9,63.5,106,104,63.8
Clc1ccc(COC(Cn2ccnc2)c2ccc(Cl)cc2Cl)c(Cl)c1 (stereo not given),13.9,-3.1,0.7,100,105,65.5,91.7,56.7,0,0
CC[C@H](C)C(=O)O[C@H]1C[C@@H](C)C=C2C=C[C@H](C)[C@H](CC[C@@H]3C[C@@H](O)CC(=O)O3)[C@H]21,-19.9,-10.7,9.9,-21.1,0.6,110,82.1,100,108,85.1
CN(C)c1nc(N(C)C)nc(N(C)C)n1 [Altretamine],-8.9,-16.7,11.8,12.1,-12.8,117,93.1,136,82.1,93.4
COc1ccc(-c2oc3c(CC=C(C)C)c(O[C@@H]4O[C@H](CO)[C@@H](O)[C@H](O)[C@H]4O)cc(O)c3c(=O)c2O[C@@H]2O[C@@H](C)[C@H](O)[C@@H](O)[C@H]2O)cc1,-20.5,1.8,-16.1,8.8,3.7,78.7,126,70.8,119,83
C=C(C)[C@@H]1CC=C(C(=O)O)CC1,11.2,9.7,18.1,0.4,4.5,156,129,117,128,117
CC[C@H](CC[C@@H](C)[C@H]1CC[C@H]2[C@@H]3CC=C4C[C@@H](OC(C)=O)CC[C@]4(C)[C@H]3CC[C@]12C)C(C)C,7.6,2,34.4,-5.2,32.2,126,71.3,142,110,163
CC[C@H](C)C(=O)O[C@H]1C[C@H](O)C=C2C=C[C@H](C)[C@H](CC[C@@H](O)C[C@@H](O)CC(=O)O)[C@H]21,-11.6,16.2,17.1,-23.4,-1.1,94.3,98.5,96.3,139,97
COc1cccc(-c2cc(=O)c3cc(OC)ccc3o2)c1,-12.3,4,8.8,14.2,4.4,95.5,113,123,103,109
O=S(=O)(O)CCS,25,-23.8,-8.1,39,5.3,149,107,102,125,89.2
